Assay: Cargo loading inside VLPs (SEC, radioactivity and fluorescence or HPLC)

Compound: COc1cc2cc(c1Cl)N(C)C(=O)C[C@H](OC(=O)[C@H](C)N(C)C(=O)CCS)[C@]1(C)O[C@H]1[C@H](C)[C@@H]1C[C@@](O)(NC(=O)O1)[C@H](OC)/C=C/C=C(\C)C2 [Mertansine]
- amount of loaded Mertansine (assembly at 2.5 M NaCl with DMF or DMSO, SEC washed, HPLC after reduction and disassembly with 2% SDS): > 300 molecules per VLP

Compound: BODIPY FL-Cysteine [BDFL]
- BDFL loaded and retained per VLP (hydrophobic loading domain with cysteine, disulfide formed with 10 mM diamide, after several washes): ~450 molecules per VLP

Compound: Rhodamine 123
- Rhodamine 123 associated with the VLP (HepBc with hydrophobic and negatively charged C-terminal loading domain after the hexahistidine tag, before wash steps): about 1000 molecules per VLP
- retention of loaded cargo during wash steps (successive SEC column washes of Rhodamine 123 loaded VLPs): lost during the wash steps

Source: US11261216B2, “Engineered hepatitis B core polypeptide” (priority 2018, dated 2022)
